{"source": "PubChem BioAssay AID540256", "about": "(National Center for Advancing Translational Sciences (NCATS), 2011)", "note": "Several values for one entry are separate records, joined by “and”; a condition that tells them apart may be missing. Equal entries are not always repeated. About 3,700 (1.2%) of roughly 300,000 compounds were called active. The inconclusive results got no clear call from the source; some entries with a clear call stand among them for comparison. Calls follow the shape of the full dose curve; tested in HEK293 cells. A potency beside an inconclusive call is a rough fit, not a confirmed value. Potency is read from the fitted curve at half-maximal effect."}
{"experiment": "qHTS for Inhibitors of binding or entry into cells for Lassa Virus; also: nearly all actives have a fitted effect of over 50% in size", "conditions": "Lassa virus pseudotype entry inhibition, cell reporter; series mostly up to 37.9 µM"}
{"smiles": "O=C(NCc1ccc(F)cc1)C(=O)Nc1nc(C23CC4CC(CC(C4)C2)C3)cs1", "Potency": "inconclusive: 8.91 µM [inhibitor, partial curve, poor fit]"}
{"smiles": "O=CN1CCN(C(=O)Cc2ccc([N+](=O)[O-])cc2)CC1", "Potency": "inconclusive: 2.91 µM [activator, partial curve]"}
{"smiles": "COc1ccc(C(=O)CSc2nc(C)cc(=O)[nH]2)cc1C", "Potency": "inactive"}
{"smiles": "CN(CC(=O)NC1CCCc2ccccc21)S(=O)(=O)c1cccs1", "note": "(stereo not drawn)", "Potency": "inactive"}
{"smiles": "CC(C(=O)NCC1CCCCC1)N(C)Cc1ccc(Br)cc1", "note": "(stereo not drawn)", "Potency": "inactive"}
{"smiles": "O=C1CC(NNc2nc3ccccc3s2)C(=O)N1c1ccc(F)cc1", "note": "(stereo not drawn)", "Potency": "inconclusive: 0.708 µM [inhibitor, full curve, poor fit]"}
{"smiles": "COC(=O)C1C(O)C(C)C(O)C(C)(O)/C=C\\C=C(/C)C(=O)Nc2c(C)c(OC(C)=O)c3c(c2O)C(=O)C(C)=C2OCOC(=C23)/C(C)=C/C(C)(O)C(O)C(C)C1O", "note": "(stereo not drawn)", "Potency": "inactive"}
{"smiles": "COc1cc(Cl)c(NS(=O)(=O)c2ccc3c(c2)CC(C)N3C(=O)C2CCC2)c(OC)c1", "note": "(stereo not drawn)", "Potency": "inconclusive: 7.08 µM [inhibitor, partial curve]"}
{"smiles": "CC(NC(=S)NC1CCCCC1)c1ccc(C(C)(C)C)cc1", "note": "(stereo not drawn)", "Potency": "inconclusive: 15.8 µM [inhibitor, single point]"}
{"smiles": "Cc1ccc(C(Nc2ccccn2)c2ccc3cccnc3c2O)cc1", "note": "(stereo not drawn)", "Potency": "inconclusive: 20 µM [inhibitor, partial curve, poor fit]"}
{"smiles": "OCCN1CCN(c2nc(-c3ccccc3)c3cc(Cl)ccc3n2)CC1", "Potency": "inconclusive: 35.5 µM [inhibitor, single point]"}
{"smiles": "CCCCCCC(=O)OC1CC(C)(C)NC(C)(C)C1", "Potency": "inconclusive: 20.6 µM [activator, single point]"}
{"smiles": "C[C@H](N)CN1CCc2ccc(Br)cc21", "Potency": "inconclusive: 18.3 µM [inhibitor, single point]"}
{"smiles": "COc1cccc(C2NC(c3cccc(OC)c3O)C(C)C(=O)C2C)c1O", "note": "(stereo not drawn)", "Potency": "inactive"}
{"smiles": "CCCCNCCCOc1cc(Cl)ccc1Cl", "Potency": "inactive"}
{"smiles": "CCc1ccc(NC(=O)CC2C(=O)N(c3cccc(OC)c3)C(=O)N2Cc2ccco2)cc1", "note": "(stereo not drawn)", "Potency": "inconclusive: 35.5 µM [inhibitor, single point]"}
{"smiles": "CC1=C(C#N)C(=O)NC(C)(C)C1", "Potency": "inconclusive: 20 µM [activator, single point]"}
{"smiles": "CCN(CC)c1ccc(C(=O)OCC(=O)NC(C)(C)C)cc1", "Potency": "inconclusive: 11.2 µM [inhibitor, partial curve, poor fit]"}
{"smiles": "CCOP(=S)(OCC)SCSP(=S)(OCC)OCC", "Potency": "inconclusive: 3.16 µM [inhibitor, partial curve, poor fit]"}
{"smiles": "COCCOC(=O)C1=C(C)NC(=O)NC1c1cccc(F)c1", "note": "(stereo not drawn)", "Potency": "inconclusive: 5.62 µM [activator, partial curve, poor fit]"}
{"smiles": "CCOC(=O)C1=Nc2ccccc2/C1=C\\c1c(O)n(C)c(=O)n(C)c1=O", "Potency": "inconclusive: 12.6 µM [inhibitor, single point]"}
{"smiles": "COc1ccc(-c2csc3nc(-c4ccccc4OC)oc(=O)c23)cc1", "Potency": "inactive"}
{"smiles": "CCOc1ccc(NC(=O)CNC(=O)c2ccc(OC)c(OC)c2)cc1", "Potency": "inactive"}
{"smiles": "COc1ccccc1-c1nnc2sc(C3CCCCC3)nn12", "Potency": "inconclusive: 14.6 µM [inhibitor, partial curve, poor fit]"}
{"smiles": "CCc1ccccc1N(CC(=O)NCc1ccco1)C(=O)CCC(=O)Nc1nccs1", "Potency": "inactive"}
{"smiles": "Cc1cc(C)cc(N=c2c([N+](=O)[O-])nn(-c3ccc4c(c3)OCCO4)n2O)c1", "Potency": "inconclusive: 17.8 µM [inhibitor, single point]"}
{"smiles": "O=C(Nc1ccc(CN2CCOCC2)cc1)c1cc2ccccn2n1", "Potency": "active: 6.51 µM"}
{"smiles": "Cc1nc(C(=O)NNC(=O)c2ccccc2)c(C(F)(F)F)o1", "Potency": "inconclusive: 12.6 µM [inhibitor, partial curve, poor fit]"}
{"smiles": "Cc1ccccc1Cn1nc(C)c(NC(=O)c2noc3c2CC(C(C)(C)C)CC3)c1C", "note": "(stereo not drawn)", "Potency": "inconclusive: 20.6 µM [inhibitor, single point]"}
{"smiles": "CC(C)(C)OC(=O)N/N=C\\c1ccc(OC(=O)c2ccco2)cc1", "Potency": "inconclusive: 10 µM [inhibitor, partial curve, poor fit]"}
{"smiles": "Cc1ccc(C(=O)NC(NC(=O)c2ccc(C)cc2)C(Cl)Cl)cc1", "Potency": "inconclusive: 35.5 µM [inhibitor, partial curve, poor fit]"}
{"smiles": "c1ccc(Nc2nc(-c3ccccn3)cs2)cc1", "Potency": "inconclusive: 0.398 µM [activator, partial curve, poor fit]"}
{"smiles": "C=CCn1c(O)c(N=NC(=S)Nc2cccc(C)c2)c2ccccc21", "Potency": "inconclusive: 6.51 µM [inhibitor, partial curve]"}
{"smiles": "O=C1Cc2c([nH]c3ccc(Br)cc23)-c2ccccc2N1", "Potency": "inconclusive: 16.4 nM [activator, full curve, poor fit] and inconclusive: 14.1 µM [inhibitor, partial curve, poor fit]"}
{"smiles": "COc1ccc(/C=C2\\SC(=N)N(c3ccc(F)cc3)C2=O)cc1", "Potency": "inconclusive: 6.31 µM [inhibitor, partial curve, poor fit]"}
{"smiles": "OCCN=c1cc(-c2ccccc2)oc2ccc(Cl)cc12", "Potency": "inactive"}
{"smiles": "Cn1ncc(S(=O)(=O)Cc2ccccc2)c(Br)c1=O", "Potency": "active: 9.2 µM"}
{"smiles": "CCOc1ccc2c(c1)-c1c(ssc1=S)C(C)(C)N2C(=O)c1ccco1", "Potency": "inconclusive: 7.94 µM [inhibitor, partial curve, poor fit]"}
{"smiles": "CC1(C)Cc2c(cnn2-c2ccc(F)cc2)C(NC(=O)c2ccco2)C1", "note": "(stereo not drawn)", "Potency": "inactive"}
{"smiles": "CC(C)c1ccc(CNn2cnnc2)cc1", "Potency": "inconclusive: 22.4 µM [activator, single point]"}
{"smiles": "O=C(Nc1cccc(C(F)(F)F)c1)n1cc(-c2ccccn2)c(N2CCOCC2)n1", "Potency": "inactive"}
{"smiles": "CC1=C(C(=O)OCC2CCCCC2)C(c2ccc(O)cc2)NC(=O)N1", "note": "(stereo not drawn)", "Potency": "inconclusive: 7.08 µM [inhibitor, partial curve, poor fit]"}
{"smiles": "COc1cccc(C(=O)NC(C)c2ccc(Br)cc2)c1", "note": "(stereo not drawn)", "Potency": "inactive"}
{"smiles": "Cc1cc(C)c2c(c1)-c1c(ssc1=S)C(C)(C)N2C(=O)CSc1nncn1C", "Potency": "inconclusive: 35.5 µM [inhibitor, single point]"}
{"smiles": "C[C@H]1CCC/C=C/C2C[C@H](O)CC2[C@H](O)/C=C/C(=O)O1", "note": "(stereo partly drawn)", "Potency": "active: 1.16 µM"}
{"smiles": "COc1ccc(C(=O)NC(=S)NNC(=O)CCc2ccccc2)cc1", "Potency": "inconclusive: 7.3 µM [inhibitor, partial curve]"}
{"smiles": "COc1ccc(-n2nc(C)c3onc(C)c3c2=O)cc1", "Potency": "inactive"}
{"smiles": "N/C(=N\\OC(=O)/C=C/c1ccccc1)c1ccc(Cl)cc1", "Potency": "inactive"}
{"smiles": "COCCCNC(=O)c1ccc2nc(Cc3ccc(OC)cc3)oc2c1", "Potency": "inconclusive: 17.8 µM [inhibitor, partial curve, poor fit]"}
{"smiles": "Cc1[nH]oc(=O)c1N=Nc1ccccc1", "Potency": "inactive"}
{"smiles": "COc1cccc(NC(=O)c2ccn(C)n2)c1", "Potency": "inconclusive: 1.83 µM [activator, partial curve]"}
{"smiles": "COCCNC(=O)CSc1c2c(nc3cc(Cl)ccc13)CCCC2", "Potency": "inconclusive: 35.5 µM [inhibitor, single point]"}
{"smiles": "CCCc1nn2c(=O)cc(COC(=O)c3cccc(NC(=O)CCc4ccccc4)c3)nc2s1", "Potency": "inconclusive: 5.62 µM [activator, single point]"}
{"smiles": "Cn1c(O)c(N=NC(=O)c2ccccc2O)c2ccccc21", "Potency": "inconclusive: 35.5 µM [inhibitor, single point]"}
{"smiles": "CN(C(=O)C1CCCN(c2ncnc3c2nc2n3CCCCC2)C1)c1cccc(Cl)c1", "note": "(stereo not drawn)", "Potency": "inconclusive: 12.6 µM [inhibitor, single point]"}
{"smiles": "CCN(CC)C(=O)C(Oc1ccc(S(=O)(=O)N2CCCC2)cc1[N+](=O)[O-])c1ccccc1", "note": "(stereo not drawn)", "Potency": "inconclusive: 11.2 µM [inhibitor, partial curve, poor fit]"}
{"smiles": "Cc1noc(C)c1CSCC(=O)Nc1ccccc1N1CCCC1", "Potency": "inactive"}
{"smiles": "Cc1ccccc1CC(=O)Nc1ccc2c(c1)CCC2", "Potency": "inconclusive: 35.5 µM [inhibitor, partial curve, poor fit]"}
{"smiles": "CN1CCN(NS(=O)(=O)c2cccs2)CC1", "Potency": "inconclusive: 1.26 µM [inhibitor, single point]"}
{"smiles": "Cc1ccc(CN(Cc2ccco2)C(=O)COc2c(C)cc(C)cc2C)cc1", "Potency": "inconclusive: 12.6 µM [activator, partial curve, poor fit]"}
{"smiles": "CCn1cc(S(=O)(=O)c2ccc(OC)cc2)c(=O)c2cc(F)c(N3CCC(C)CC3)cc21", "Potency": "inactive"}
{"smiles": "O=C(Nc1ccccc1C(=O)O)/C(=C/c1ccc(Cl)cc1Cl)NC(=O)c1ccco1", "Potency": "inconclusive: 5.62 µM [activator, single point]"}
{"smiles": "CNCCCC12CCC(c3ccccc31)c1ccccc12", "Potency": "active: 18.4 µM and active: 16.4 µM"}
{"smiles": "CC(C)(C)NC(=O)C(c1ccccn1)N(C(=O)c1csnn1)C1CCCCC1", "note": "(stereo not drawn)", "Potency": "inconclusive: 2.24 µM [inhibitor, full curve]"}
{"smiles": "COc1ccc(N(C(=O)CNC(=O)c2ccco2)C(C(=O)NCC2CCCO2)c2ccccc2)cc1Cl", "note": "(stereo not drawn)", "Potency": "inconclusive: 2.51 µM [inhibitor, single point]"}
{"smiles": "N#CCC(=O)NC1CCC(CC2CCC(NC(=O)CC#N)CC2)CC1", "note": "(stereo not drawn)", "Potency": "inconclusive: 0.501 µM [activator, single point]"}
{"smiles": "Cc1cc(C)c2nc(NC(=O)c3ccc(S(=O)(=O)N4CCCC4)cc3)sc2c1", "Potency": "inactive"}
{"smiles": "CC1CCC(NC(=O)CN2C(=O)c3cccnc3Oc3ccc(Cl)cc32)CC1", "note": "(stereo not drawn)", "Potency": "inconclusive: 35.5 µM [inhibitor, single point]"}
